A short description of this data set: syringe/filter in vitro dissolution test in MFD solution. It counts as physicochemical. The method, then: This example discloses an in vitro dissolution test termed the “syringe/filter” method. In this method the concentration of test compound in solution is determined as a function of time. Test solution is held in a syringe from which samples are expelled through a filter at pre-determined time points. In between expelling samples from the syringe, the syringe is rotated (50 rpm) on a wheel held in an oven at 37° C.
A 20 GA hypodermic needle was attached to the syringe, and 10 mL of a model-fasted duodenal (MFD) solution at 37° C. was drawn into the syringe.
The MFD solution was prepared using the following procedure. […] This mixture was then mixed thoroughly by vortex mixer (Fisher Vortex Genie), and the solvent removed rapidly by roto-evaporator (Rotavapor RE121, Büchi), leaving a dry white surface dispersion coating the flask. The surface dispersion was then reconstituted with 200 mL of the 37° C. phosphate buffered saline.
The needle was then replaced with a 13 mm, 0.45 μm polyvinylidine diflouride syringe filter (Scientific Resources, Titan), and the syringe was vigorously shaken for 30 sec. After 30 sec, 6 drops of the solution was expelled and a subsequent 13 drop sample was delivered to a test tube. After expelling the sample, the syringe plunger was drawn back to pull an air bubble into the syringe to aid in subsequent mixing and the syringe placed back on a rotating wheel in a 37° C. oven. […] The remaining solution in the syringe was mixed by rotating on a wheel at 50 rpm in a 37° C. temperature-controlled box.

As to `COC(=O)C1=C(C)NC(C)=C(C(=O)OC)C1c1ccccc1[N+](=O)[O-]` [Example C12, 1,4-dihydro-2,6-dimethyl-4-(2-nitrophenyl)-3,5-pyridinecarboxylic acid dimethyl ester], the C90 (concentration at 90 minutes, syringe/filter, MFD, 37° C.) came to 18 μgA/mL. The C180 (concentration at 180 minutes, syringe/filter, MFD, 37° C.) is 19 μgA/mL. The C1200 (concentration at 1200 minutes, syringe/filter, MFD, 37° C.) is on record as 19 μgA/mL. For the same compound, the “MSSC (maximum supersaturated concentration)” value (syringe/filter method, MFD solution pH 6.5, 37° C., 0.45 μm filtrate) amounted to 19 μgA/mL.

The record behind these values is patent US8337899B2, “Solid pharmaceutical dispersions with enhanced bioavailability” (Bend Research, Inc., priority 1997, dated 2012).
